Assay results from patent US10836732B2, “Compounds for combating arthropods” (priority 2013, dated 2020).
Some of these results come from one statement about several compounds together.

Tested on: Aedes aegypti strain MONHEIM
Test: Aedes test (AEDSAE surface treatment)
Assay type: in vivo
Conditions: exposure 30 minutes, 24 hours after contact
Procedure: Solvent: acetone+2000 ppm rapeseed oil methyl ester (RME)
To produce an appropriate active ingredient formulation, the active ingredient is dissolved in the solvent (2 mg/ml). The active ingredient formulation is pipetted onto a glazed tile and, after it has dried off, adult mosquitoes of the species Aedes aegypti strain MONHEIM are placed onto the treated tile. The exposure time is 30 minutes.
24 hours after contact with the treated surface, mortality in % is determined 100% means that all mosquitoes have been killed; 0% means that none of the mosquitoes have been killed.

N#CC1(NC(=O)c2cc(-n3cc(-c4c(Cl)cc(C(F)(C(F)(F)F)C(F)(F)F)cc4Cl)nn3)ccc2Cl)CC1 [I-T48-4]
efficacy (mortality in %) (20 mg/m^2, glazed tile): 90-100%
efficacy (mortality in %) (100 mg/m^2, glazed tile): 90-100%
